# From publication PMC7819943, “Rice protein-binding microarrays: a tool to detect cis-acting elements near promoter regions in rice”
# The other results are listed elsewhere or left out.
# Target: T1, OsSMF1 (Oryza sativa, UniProt Q6ZLB0 1-436)
# T1 sequence: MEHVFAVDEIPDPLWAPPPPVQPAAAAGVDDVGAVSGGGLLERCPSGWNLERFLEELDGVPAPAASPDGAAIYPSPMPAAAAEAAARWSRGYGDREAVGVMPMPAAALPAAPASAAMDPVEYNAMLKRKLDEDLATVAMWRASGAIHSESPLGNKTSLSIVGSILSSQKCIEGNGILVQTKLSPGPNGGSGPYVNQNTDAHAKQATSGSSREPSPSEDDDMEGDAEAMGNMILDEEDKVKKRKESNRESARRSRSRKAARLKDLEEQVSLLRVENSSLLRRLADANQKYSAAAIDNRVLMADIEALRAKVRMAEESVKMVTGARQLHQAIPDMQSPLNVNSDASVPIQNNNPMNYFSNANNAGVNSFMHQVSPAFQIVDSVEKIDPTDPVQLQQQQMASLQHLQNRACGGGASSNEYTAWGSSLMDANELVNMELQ
# Experiment: protein-binding microarray (RPBM); PBS, 2% BSA, 51.3 ng/ul salmon testes DNA, 50 uM zinc acetate, 200 nM TF, 25 C, 1 h; high values mean tight binding
# Settings: protein: recombinant; tags: N-terminal polyhistidine and DsRed monomer fusion (pET32a); chain copies: 2; label: CyDye5-dUTP incorporated in the synthesized complementary strand; 3' TTTTT single-stranded linker to array surface; dsDNA, one strand shown
# Procedure, shortened: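 The binding signal is fluorescence intensity per array feature (arbitrary units). Readings came from an Axon 4000B scanner after a washed, 2% BSA-blocked, double-stranded custom Agilent array had been incubated for 1 h at 25 °C with 200 nM protein and 50 µM zinc acetate. The protein was a Ni–NTA-purified transcription factor fused N-terminally to polyhistidine and DsRed, expressed in E. coli BL21-CodonPlus.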
row,Sequence,binding signal
1,CTCTATACCAATAAAGACAACGTGGCAACTATTTCAAGGACGGAGTCACCTAGTGCAG,4740 fluorescence intensity (a.u.)
2,ACAGCCAATCAGAATAGGACACATCACCCAGTCTAAAACTCGGAGTCACCTAGTGCAG,3480 fluorescence intensity (a.u.)
3,TTACCTTTCTCAAGCTAGACACCATAATCTCTGAATTTAGCGGAGTCACCTAGTGCAG,14700 fluorescence intensity (a.u.)
4,TGATATGAAAACTCGTGCCAACTCAGCAAAATATTGTAATCGGAGTCACCTAGTGCAG,6920 fluorescence intensity (a.u.)
5,GCTTTTCCTGTCAATGTTTGTTTGTGTAATGTTGTTATACCGGAGTCACCTAGTGCAG,3630 fluorescence intensity (a.u.)
6,AATAGGTATCGACGTGCCTTACAGGTGCACGCTGACTAGTCGGAGTCACCTAGTGCAG,3540 fluorescence intensity (a.u.)
7,TCTCGAGGCAAAGCCCAGTCATCGCGGCGGTCACTGACGTCGGAGTCACCTAGTGCAG,4220 fluorescence intensity (a.u.)
8,TATGGCCGTGCATGCTTCGCCTTGCTTGCCCACGTCACCCCGGAGTCACCTAGTGCAG,22800 fluorescence intensity (a.u.)
9,ATCCGCCACTTCGCATGCACGCCATCCTCGCCTCGCCGAGCGGAGTCACCTAGTGCAG,3140 fluorescence intensity (a.u.)
10,CTGCGCCATCCACGCCAAGCGCGTCACCATCATGCCCAAGCGGAGTCACCTAGTGCAG,6140 fluorescence intensity (a.u.)
11,ACTACTCAGTATGTCGCGGTGCCACCTCACACGGTGACACCGGAGTCACCTAGTGCAG,8720 fluorescence intensity (a.u.)
12,TTGGGCCACGCACGGCGAAACTAGTATATGATGCCAATGCCGGAGTCACCTAGTGCAG,4610 fluorescence intensity (a.u.)
13,AAGGATGGGTACGAGGAGGTAGTAAACGTGGACATTTCATCGGAGTCACCTAGTGCAG,4250 fluorescence intensity (a.u.)
14,TAAGATTTGGATCTGTCACTCAGCTGCTGCCATCAGATGGCGGAGTCACCTAGTGCAG,5230 fluorescence intensity (a.u.)
15,TTTCTCCCCATCGAGATTCGCGTGGCCTTGTGGTCACCGCCGGAGTCACCTAGTGCAG,3400 fluorescence intensity (a.u.)
16,ACAAACAATGTATACGTGTACTCGAGTGGGCGTACCTGGACGGAGTCACCTAGTGCAG,5600 fluorescence intensity (a.u.)
17,CTTCATGTAATCATGTCATGCCTTCAAATGCAGCTGGGCACGGAGTCACCTAGTGCAG,4030 fluorescence intensity (a.u.)
18,CCACCAGCTCGTGGCCGCTGCCACGTTGAACCCATAGCAACGGAGTCACCTAGTGCAG,7080 fluorescence intensity (a.u.)
19,TACTACAAACCACATCACCCCTCCTTCTAAGCAGAACATGCGGAGTCACCTAGTGCAG,4030 fluorescence intensity (a.u.)
20,CCGTGGGTATTTCCGTCATTTCGCGCCTAAATCTCACTCCCGGAGTCACCTAGTGCAG,3460 fluorescence intensity (a.u.)
21,TAGCAAATTTTGCCATCAGAATATGACACATCACCGAGACCGGAGTCACCTAGTGCAG,10700 fluorescence intensity (a.u.)

row,Sequence,binding signal
1,CTGTTGATAGAGTTTAGGTGTATCCTCAACCGTGTACACACGGAGTCACCTAGTGCAG,3330 fluorescence intensity (a.u.)
2,GCAAAATAGAGCGGTCTATTAGCACATGATTAATTAAATACGGAGTCACCTAGTGCAG,24400 fluorescence intensity (a.u.)
3,TATCGACCCCTTCAACTATTAAAACCGTGTAAAATTGACACGGAGTCACCTAGTGCAG,3230 fluorescence intensity (a.u.)
4,TATCAGCGCCACCAGAAAACGAAAAGGACACGTGTACTACCGGAGTCACCTAGTGCAG,10400 fluorescence intensity (a.u.)
5,TTTCACTGACACATATGGTTCGAGTCTCACAGTGTACTCTCGGAGTCACCTAGTGCAG,4170 fluorescence intensity (a.u.)
6,GGCATGCCACATCAACGCCACGTAGGATTCTAAAGGGGTTCGGAGTCACCTAGTGCAG,18000 fluorescence intensity (a.u.)
7,GAAGTCCAGTTTCCGTATAGGGCATGGTATGTGGTGGGTCCGGAGTCACCTAGTGCAG,3170 fluorescence intensity (a.u.)
8,CGCCGCGGCGTCGGAGCCGTACAGGTGGCTCCTCAGGGTGCGGAGTCACCTAGTGCAG,3220 fluorescence intensity (a.u.)
9,TGGTATATGTACATGCTTAAATAATGTGAAAATGACGTGGCGGAGTCACCTAGTGCAG,20800 fluorescence intensity (a.u.)
10,TTGATGTTAGCCTAGTCGACAACTCATCATCTAATTTGATCGGAGTCACCTAGTGCAG,5200 fluorescence intensity (a.u.)
11,TGGAAAAGGTTTGATTTTGTGTGGCATGCCTGCGCGGGCGCGGAGTCACCTAGTGCAG,3470 fluorescence intensity (a.u.)
12,CGGTATTGGATTGATCAATCATCGTCACCTCGTTTTGCTTCGGAGTCACCTAGTGCAG,4840 fluorescence intensity (a.u.)
13,CTTTGGTTTTATCTTCACTCCAGTCAATGACACCTCTACCCGGAGTCACCTAGTGCAG,3900 fluorescence intensity (a.u.)
14,GTACGTCGGAAGCAACGGCAGACATGACAGCATATGGCCTCGGAGTCACCTAGTGCAG,15900 fluorescence intensity (a.u.)
15,TCTTAGTGTGACAGGTCTCCCACTTCCACGTGAAAATTGCCGGAGTCACCTAGTGCAG,3240 fluorescence intensity (a.u.)
16,ACTTTGACCTGTTGTATCTCGCTAAGTCATCTCGTGGGGCCGGAGTCACCTAGTGCAG,3360 fluorescence intensity (a.u.)
17,TGGAAATTGACTCGTCACAAGCTGGACCAGACGACCGCTTCGGAGTCACCTAGTGCAG,3560 fluorescence intensity (a.u.)
18,GCTGGGGAAGCGTCCCTCTCTCCGCCGGCCGATGTGGATGCGGAGTCACCTAGTGCAG,3460 fluorescence intensity (a.u.)
19,GTGCTCTGCCTGACGAACTTTTGCACCATGTCATGACATTCGGAGTCACCTAGTGCAG,3310 fluorescence intensity (a.u.)
20,TATTAATTTGCACTGTCTCCTGATGTTTGGTTTAATTTGTCGGAGTCACCTAGTGCAG,3150 fluorescence intensity (a.u.)
21,ATCGGCTTTCACCCTTACACCGTTACACGTTGCACTGCACCGGAGTCACCTAGTGCAG,6970 fluorescence intensity (a.u.)

# Nothing new here: entries from further up.
row,Sequence,binding signal
16,ACAAACAATGTATACGTGTACTCGAGTGGGCGTACCTGGACGGAGTCACCTAGTGCAG,5600 fluorescence intensity (a.u.)
17,CTTCATGTAATCATGTCATGCCTTCAAATGCAGCTGGGCACGGAGTCACCTAGTGCAG,4030 fluorescence intensity (a.u.)
